Data: US10421973B2, “Chemically inducible cucumber mosaic virus protein expression system” (THE REGENTS OF THE UNIVERSITY OF CALIFORNIA, priority 2006, dated 2019)

Experiment: Extracellular estradiol concentration in culture medium (competitive immunoassay)
Set-up: species or system Nicotiana benthamiana

C[C@]12CC[C@@H]3c4ccc(O)cc4CC[C@H]3[C@@H]1CC[C@@H]2O [estradiol, 17-β-estradiol]
extracellular estradiol concentration after depletion (XVE and CMViva bioreactor cultures, after induction): 0.8 µM | extracellular estradiol concentration at induction (XVE and CMViva bioreactor cultures, before depletion): 9.3 µM | time to depletion of estradiol from culture broth (XVE and CMViva culture broths): ≤ 24 h | extracellular estradiol concentration (wild type N. benthamiana cells in flask, estradiol added 10 days after inoculation): 7.84 to 9.08 µM
